Results taken from PubChem BioAssay AID2685 (National Center for Advancing Translational Sciences (NCATS), 2010).
Some of the results follow. The main result of the screen is listed elsewhere. These columns were measured beside it and carry no call. The list favours compounds with an active or inconclusive main result. The note in brackets gives the kind of curve behind each potency; many fits are weak.

Assay: qHTS Assay for Lipid Storage Modulators in Drosophila S3 Cells;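 as to cell number change: cells counted by Cell Tracker Red CMTPX staining in the red channel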
Details: BODIPY lipid droplet fluorescence, 18-24 h; for cell number change: measured here: cell count max response, cells fed with added oleic acid
Outline: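 Laser-scanning cytometry quantifies lipid droplet accumulation (500–530 nm total intensity; droplet/cell object ratio) in oleic acid-fed (400 uM added) Drosophila S3 cells treated with a concentration series. 20 uM Triacsin C defined 100% inhibition.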

[1] = measured here: cell number channel AC50, cells fed with added oleic acid
[2] = measured here: lipid fluorescence (Fed channel) AC50, cells fed with added oleic acid

Compound | cell number change [%] | AC50 [1] | AC50 [2]
Cc1c(C(=O)Nc2ccc3nc(N4CCOCC4)sc3c2)oc2ccccc12 | -31.2 | 29.1 µM [falling, partial curve] | 
COc1ccc(S(=O)(=O)N(C)CC(=O)Nc2ccc(F)cc2)cc1 | -10.2 | 0.92 µM [falling, full curve] | 23.1 µM [falling, partial curve, poor fit]
Cn1cc(C=O)c2cc(S(=O)(=O)N3CCOCC3)ccc21 | 43.5 | 20.6 µM [rising, single point] | 18.4 µM [rising, single point]
COc1ccc(CNCc2ccncc2)cc1OC | 24.9 |  | 
O=C(Nc1ccccc1C(=O)N1CCOCC1)c1ccc([N+](=O)[O-])cc1 | -8 |  | 
Cc1nn(-c2ccc(C(=O)O)cc2)c(=O)c2ccccc12 | 32.2 | 18.4 µM [rising, single point] | 
Cc1cc(NC(=O)c2ccc3c(c2)OCCO3)ccc1NC(=O)c1cc2ccccc2o1 | 29.9 | 0.517 µM [rising, full curve] | 18.4 µM [rising, partial curve, poor fit]
COC(=O)c1ccc(C2c3c(oc4ccccc4c3=O)C(=O)N2CCCN2CCOCC2)cc1 (stereo not given) |  |  | 1.16 µM [falling, single point]
O=C(OCC(=O)N1CCN(C(=O)c2ccco2)CC1)c1cc(-c2ccc(Cl)c(Cl)c2Cl)nc2ccccc12 |  | 3.26 µM [rising, partial curve] | 20.6 µM [falling, single point]
CC(C)(C)c1ccc(S(=O)(=O)NNC(=O)c2cc3ccccc3[nH]2)cc1 | -67.9 | 23.1 µM [falling, single point] | 
Cc1c(S(=O)(=O)c2ccccn2)c(N)n(Cc2ccccc2Cl)c1C | 21.3 | 0.58 µM [rising, single point] | 2.91 µM [rising, single point]
CCC(C)NC(=O)c1ccc(CN2CCc3ccccc3C2)cc1 (stereo not given) | -1.31 |  | 13 µM [rising, partial curve]
COc1ccc2c(c1)Cc1sc(NC(C)=O)nc1-2 | 137 | 7.31 µM [rising, partial curve] | 6.51 µM [rising, single point]
Cn1c(CC2Sc3ccccc3NC2=O)nnc1SCC(=O)c1ccc(Cl)cc1 (stereo not given) | -66.3 | 29.1 µM [falling, single point] | 29.1 µM [falling, single point]
Brc1ccc(C=Nc2ccc3c(c2)OCCOCCOCCO3)s1 | -64.1 | 29.1 µM [falling, single point] | 9.2 µM [falling, single point]
COc1ccc(N(C)C(=O)CC2(CC(=O)O)CCCCC2)cc1 | -59.8 | 4.61 µM [falling, full curve] | 
O=C(C[n+]1cc(-c2ccccc2)n2c1CCC2)c1cccs1 | -29.8 |  | 
CCN(CC(=O)Nc1c(F)cccc1F)C(=O)c1cnc(C)cn1 |  |  | 6.51 µM [falling, full curve, poor fit]

Compound | cell number change [%] | AC50 [1] | AC50 [2]
COC(=O)c1cc(=O)n(CCc2ccc(OC)cc2)c(=Nc2ccc(F)c(Cl)c2)s1 | -12.3 |  | 0.58 µM [falling, single point]
CC(=O)NCCc1cc2ccc(C)c(C)c2[nH]c1=O |  | 1.84 µM [rising, partial curve] | 0.58 µM [rising, single point]
Cc1ccccc1C[C@H](C(=O)O)N1C(=O)c2ccc(C(=O)O)cc2C1=O | 12 |  | 20.6 µM [falling, single point]
COCc1cc(C)nc(SCC[N+](C)(C)CC(=O)Nc2cccc(C)c2)c1C#N | -39.9 | 0.00517 µM [falling, full curve, poor fit] | 29.1 µM [falling, single point]
Cc1cc(S(=O)(=O)NCCCN2CCOCC2)c(Cl)cc1Cl | -5.26 |  | 
Cc1cnc(C(=O)NC(Cc2ccccc2)c2ccccc2)cn1 (stereo not given) | 5.86 |  | 0.82 µM [rising, full curve]
Cc1cc(C(=O)N2CCN(c3ccc(C(F)(F)F)cn3)CC2)c(C)o1 | -10.4 |  | 1.84 µM [falling, partial curve, poor fit]
Cc1ccc(C(=O)NCCCNC(=O)c2ccco2)cc1 |  | 2.06 µM [rising, partial curve] | 11.6 µM [falling, partial curve]
Cc1ccc(C)c(NC(=S)NC(NC(=O)N(C)C)C(Cl)(Cl)Cl)c1 (stereo not given) | 65.3 | 4.11 µM [rising, partial curve] | 
Cc1c(C)c2ccc(OS(C)(=O)=O)cc2oc1=O | -1.8 | 0.103 µM [rising, full curve, poor fit] | 0.116 µM [rising, full curve, poor fit]
O=C(Nc1cnc2ccccc2c1)c1cccnc1 | 5.51 | 6.51 µM [rising, single point] | 5.17 µM [rising, full curve]
Cc1csc(NC(=O)CSc2nnc(-c3ccncc3)n2C)n1 | 42.9 | 2.06 µM [rising, partial curve] | 4.11 µM [rising, single point]
Cc1cccc(NC(=S)/N=C(\N)Nc2nc(C)c3ccccc3n2)c1 |  |  | 0.0651 µM [rising, full curve, poor fit]
Cn1c(-c2ccc3c(c2)OCO3)c(C(=O)O)c(=O)c2ccccc21 | 18.5 |  | 32.6 µM [falling, single point]
COC(=O)CN(c1ccc2c(c1)OCO2)S(C)(=O)=O | -21 | 4.11 µM [falling, single point] | 
CCCCn1c(=S)[nH]c2ccc(N3CCOCC3)cc2c1=O | 81.7 | 7.31 µM [rising, partial curve] | 
CC(=O)Nc1ccc(S(=O)(=O)Oc2ccc(C=O)cc2)cc1 |  |  | 29.1 µM [rising, single point]
CCCNC(=O)C(Sc1ccccc1)c1ccccc1 (stereo not given) | -44.7 | 18.4 µM [falling, partial curve, poor fit] | 

Molecules from the list above that have an aryl thioether with sulfur outside any ring:
Compound | cell number change [%] | AC50 [1] | AC50 [2]
Cn1c(CC2Sc3ccccc3NC2=O)nnc1SCC(=O)c1ccc(Cl)cc1 (stereo not given) | -66.3 | 29.1 µM [falling, single point] | 29.1 µM [falling, single point]
COCc1cc(C)nc(SCC[N+](C)(C)CC(=O)Nc2cccc(C)c2)c1C#N | -39.9 | 0.00517 µM [falling, full curve, poor fit] | 29.1 µM [falling, single point]
Cc1csc(NC(=O)CSc2nnc(-c3ccncc3)n2C)n1 | 42.9 | 2.06 µM [rising, partial curve] | 4.11 µM [rising, single point]
CCCNC(=O)C(Sc1ccccc1)c1ccccc1 (stereo not given) | -44.7 | 18.4 µM [falling, partial curve, poor fit] | 
